Binding data for 3 substances are collected here from paper PMC7701510, “Identification of HN252 as a potent inhibitor of protein phosphatase PPM1B” (Journal of Cellular and Molecular Medicine, 2020).

The chains behind the UniProt entries cited, without tags or fusion partners.
UniProt P31749: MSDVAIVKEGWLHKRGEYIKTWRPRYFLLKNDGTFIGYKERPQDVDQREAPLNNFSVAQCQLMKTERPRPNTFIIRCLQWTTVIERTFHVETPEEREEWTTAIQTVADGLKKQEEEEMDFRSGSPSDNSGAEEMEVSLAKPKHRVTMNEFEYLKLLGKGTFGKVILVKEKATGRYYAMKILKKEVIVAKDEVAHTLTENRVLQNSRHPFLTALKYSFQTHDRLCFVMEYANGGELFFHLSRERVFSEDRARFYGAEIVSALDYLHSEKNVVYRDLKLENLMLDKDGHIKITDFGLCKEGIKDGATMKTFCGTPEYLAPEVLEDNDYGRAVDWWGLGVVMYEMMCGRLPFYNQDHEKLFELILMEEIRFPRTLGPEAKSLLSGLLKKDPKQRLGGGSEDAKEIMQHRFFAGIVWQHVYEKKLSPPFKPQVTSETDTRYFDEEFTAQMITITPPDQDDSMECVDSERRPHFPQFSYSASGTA
UniProt P35222: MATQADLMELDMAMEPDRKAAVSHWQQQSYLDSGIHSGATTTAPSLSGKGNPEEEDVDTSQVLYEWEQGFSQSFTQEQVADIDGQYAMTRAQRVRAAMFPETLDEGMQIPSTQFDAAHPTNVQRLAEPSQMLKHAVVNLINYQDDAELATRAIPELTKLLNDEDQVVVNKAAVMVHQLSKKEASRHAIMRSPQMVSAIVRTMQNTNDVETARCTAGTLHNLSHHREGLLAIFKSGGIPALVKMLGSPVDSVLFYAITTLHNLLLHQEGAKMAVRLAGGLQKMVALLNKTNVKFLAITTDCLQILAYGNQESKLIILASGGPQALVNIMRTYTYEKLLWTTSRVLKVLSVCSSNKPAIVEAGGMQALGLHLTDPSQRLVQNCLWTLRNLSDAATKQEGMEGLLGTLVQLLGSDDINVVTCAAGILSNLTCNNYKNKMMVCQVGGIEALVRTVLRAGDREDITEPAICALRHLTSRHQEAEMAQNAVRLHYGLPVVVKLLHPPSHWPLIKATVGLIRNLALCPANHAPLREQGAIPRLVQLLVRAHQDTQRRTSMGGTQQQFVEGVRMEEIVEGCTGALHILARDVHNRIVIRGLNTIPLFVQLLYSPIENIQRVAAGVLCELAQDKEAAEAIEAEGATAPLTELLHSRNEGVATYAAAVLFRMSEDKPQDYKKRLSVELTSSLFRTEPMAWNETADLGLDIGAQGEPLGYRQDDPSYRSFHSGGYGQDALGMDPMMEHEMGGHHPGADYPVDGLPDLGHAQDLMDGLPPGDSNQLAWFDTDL
UniProt P08238: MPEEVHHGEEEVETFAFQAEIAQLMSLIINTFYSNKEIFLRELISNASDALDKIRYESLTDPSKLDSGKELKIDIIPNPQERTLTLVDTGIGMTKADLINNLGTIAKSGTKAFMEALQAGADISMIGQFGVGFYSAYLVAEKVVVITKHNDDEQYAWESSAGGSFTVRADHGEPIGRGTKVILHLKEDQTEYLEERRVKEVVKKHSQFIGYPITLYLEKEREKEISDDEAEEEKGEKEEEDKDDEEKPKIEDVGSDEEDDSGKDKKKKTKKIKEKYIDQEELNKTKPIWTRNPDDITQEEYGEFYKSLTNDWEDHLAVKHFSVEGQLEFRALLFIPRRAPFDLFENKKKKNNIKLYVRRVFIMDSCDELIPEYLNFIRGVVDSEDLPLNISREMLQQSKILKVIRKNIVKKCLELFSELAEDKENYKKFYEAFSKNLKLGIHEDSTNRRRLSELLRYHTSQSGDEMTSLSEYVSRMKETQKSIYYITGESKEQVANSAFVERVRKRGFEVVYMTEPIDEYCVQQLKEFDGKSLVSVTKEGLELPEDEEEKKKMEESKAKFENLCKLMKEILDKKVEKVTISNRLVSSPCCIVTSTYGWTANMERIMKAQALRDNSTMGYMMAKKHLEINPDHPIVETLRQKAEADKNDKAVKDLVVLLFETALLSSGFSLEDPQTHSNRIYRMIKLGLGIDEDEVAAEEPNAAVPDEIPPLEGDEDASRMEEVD

These are yes or no findings as the source states them, for the method shown. Binding seen in cells or lysates may run through a third protein. Here binding means that the protein was enriched with, or labelled near, the bait; the list need not be complete. Sequences can lack the tags named with a protein.

The target in this test is T1, HA-PPM1B (protein phosphatase 1B) (human) (UniProt O75688).
T1 sequence: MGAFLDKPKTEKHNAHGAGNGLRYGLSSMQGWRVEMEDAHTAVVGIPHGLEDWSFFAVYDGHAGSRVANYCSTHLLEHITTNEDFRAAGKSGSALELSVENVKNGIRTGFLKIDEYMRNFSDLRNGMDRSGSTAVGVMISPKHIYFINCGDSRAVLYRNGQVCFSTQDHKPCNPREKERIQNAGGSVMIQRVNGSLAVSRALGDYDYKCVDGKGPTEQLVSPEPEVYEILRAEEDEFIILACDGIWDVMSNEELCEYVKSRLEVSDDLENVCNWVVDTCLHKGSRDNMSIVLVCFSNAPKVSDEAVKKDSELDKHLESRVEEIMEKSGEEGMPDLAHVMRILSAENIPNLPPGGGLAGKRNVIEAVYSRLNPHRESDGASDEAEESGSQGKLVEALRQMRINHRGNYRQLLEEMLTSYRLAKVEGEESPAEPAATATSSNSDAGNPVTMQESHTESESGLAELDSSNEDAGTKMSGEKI
Kind of test: affinity purification with mass spectrometry; lysates of HL7702 cells overexpressing pCDH-HA-PPM1B or pCDH blank vector, immunoprecipitated with Anti-HA Magnetic Beads; eluted proteins digested with trypsin, Q Exactive HF-X, MASCOT against the UniProt human database.
With AKT1 (from UniProt P31749 1-480), the binding result was “binds”.

On to β-catenin (from UniProt P35222 1-781), for which the binding entry is recorded as “binds”.

As to HSP90B (from UniProt P08238 1-724), the binding entry was “binds”.
